# Cleaved PARP after 72 h of treatment

Data from the primary screen of doi:10.1371/journal.pone.0140310, rounded.

Compounds and concentrations:
bexarotene (10 µM): C=C(c1ccc(C(=O)O)cc1)c1cc2c(cc1C)C(C)(C)CCC2(C)C
GW2580 (5 µM): COc1ccc(COc2ccc(Cc3cnc(N)nc3N)cc2OC)cc1
GW441756 (2 µM): Cn1cc(/C=C2\C(=O)Nc3cccnc32)c2ccccc21
GSK0660 (5 µM): COC(=O)c1sccc1S(=O)(=O)Nc1ccc(Nc2ccccc2)cc1OC
nutlin-3 (0.5 µM): COc1ccc(C2=N[C@@H](c3ccc(Cl)cc3)[C@@H](c3ccc(Cl)cc3)N2C(=O)N2CCNC(=O)C2)c(OC(C)C)c1
perifosine (2 µM): CCCCCCCCCCCCCCCCCCOP(=O)([O-])OC1CC[N+](C)(C)CC1
CP-690550 (5 µM): C[C@@H]1CCN(C(=O)CC#N)C[C@@H]1N(C)c1ncnc2[nH]ccc12

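The test systems are human melanoma cell lines, treated with a pair of drugs for 72 h and then stained and imaged. Each value is the cleaved-PARP-positive fraction of nuclei relative to DMSO-treated wells, in %, so that 100 equals the control and higher values mean more apoptosis. Concentrations were fixed for each drug; these are the higher of two levels. These are primary screening values without error estimates. The marker varies much from line to line, for technical or biological reasons.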
Only some of the drugs and lines screened are listed, without regard to their results.
A dash means that no value is listed here.

Cell line	GSK0660 + GW2580	GSK0660 + perifosine	GW441756 + CP-690550	bexarotene + nutlin-3	GW441756 + perifosine	bexarotene + perifosine
COLO 792	39.0	83.8	128	84.7	144	97.7
WM115	93.0	69.1	107	258	54.5	179
A101D	116	101	141	64.3	99.4	77.0
G-361	130	75.8	103	122	156	149
C32	229	79.8	103	271	87.8	224
COLO 829	94.9	87.2	61.2	220	87.6	329
WM451Lu	112	229	106	47.9	49.0	228
SK-MEL-2	70.6	129	49.1	188	18.8	124
COLO 800	75.4	257	65.4	60.7	77.3	69.8
WM3526	232	106	128	119	114	118
MEL-HO	141	165	41.3	33.9	48.6	42.9
WM3619	87.9	130	105	136	121	105
MeWo	48.9	60.5	53.5	66.2	96.5	93.0
LOX IMVI	16.9	87.3	118	53.1	114	50.9
RPMI-7951	69.3	155	167	80.2	136	557
UACC-257	24.9	30.4	39.9	37.4	36.6	46.0
SK-MEL-28	149	67.0	39.2	94.1	48.2	59.6
RVH-421	95.7	90.2	115	93.6	199	50.4
A375	100	85.5	25.1	108	71.1	68.9
SK-MEL-30	104	115	127	77.5	65.0	92.2
A2058	84.3	97.0	135	91.7	101	79.8
IST-MEL1	49.5	197	57.4	20.5	145	210
WM1745	92.6	-	94.6	128	-	110
501mel	83.4	157	39.5	-	86.1	-
IPC-298	46.2	41.1	42.2	184	260	121
UACC-62	23.3	215	94.4	365	109	197
SK-MEL-5	105	206	87.0	78.6	165	232
WM1716	56.3	147	82.8	25.6	9.0	27.5
MZ2-MEL	115	90.1	59.7	137	47.7	1230
LB2518-MEL	113	112	141	35.3	29.0	57.1

For reference, 3 entries once more:

Cell line,GSK0660 + GW2580,GSK0660 + perifosine,GW441756 + CP-690550,bexarotene + nutlin-3,GW441756 + perifosine,bexarotene + perifosine
IST-MEL1,49.5,197,57.4,20.5,145,210
LB2518-MEL,113,112,141,35.3,29.0,57.1
UACC-257,24.9,30.4,39.9,37.4,36.6,46.0